The values below come from paper PMC9935730.

Sequences of proteins named here, by UniProt entry; tags and fusion partners are left off. A change or cut given only in a name is not applied to a line headed by its entry. A line that says so, or that is headed by a name, gives the form on record, which may keep a tag or linker. Residues count along the entry.
Catalytic domain of Par17, residues 60-156 (Q9Y237, residues 35-131): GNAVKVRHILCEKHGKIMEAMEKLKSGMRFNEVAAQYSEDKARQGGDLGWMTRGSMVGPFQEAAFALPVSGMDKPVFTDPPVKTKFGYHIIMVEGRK
Recombinant human Parvulin 17, full-length, N-terminally His6-tagged (Q9Y237-2, form named): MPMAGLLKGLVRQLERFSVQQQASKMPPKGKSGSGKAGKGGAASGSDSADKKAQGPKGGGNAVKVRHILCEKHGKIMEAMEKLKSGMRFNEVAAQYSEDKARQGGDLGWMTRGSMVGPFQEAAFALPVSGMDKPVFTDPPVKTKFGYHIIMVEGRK
UniProt Q13526, residues 50-163: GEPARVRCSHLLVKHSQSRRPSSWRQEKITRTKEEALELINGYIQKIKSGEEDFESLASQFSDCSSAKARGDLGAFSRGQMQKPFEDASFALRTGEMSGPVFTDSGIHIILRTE

Results are given in words; binding and its absence hold for the method and conditions named.

In experiment [1] the target is Catalytic domain of Par17, residues 60-156 (human) (UniProt Q9Y237). Put plainly: SEC; Superdex 75 10/300, 0.5 ml/min, Tris–HCl 50 mM pH 8.5, 150 mM NaCl; molecular weights estimated from a calibration curve of standards; both purified.
For experiment [2], the target named is Catalytic domain of Pin1, residues 50-163 (human) (UniProt Q13526). The description is as above.
For experiment [3], the target named is Recombinant human Parvulin 17, full-length, N-terminally His6-tagged (human) (UniProt Q9Y237). Put plainly: condition: only the monomeric form isolated by SEC and run again; SEC; the monomeric form of Par17 isolated by SEC and analysed by SEC again (Fig. 3A, inset); both purified.

Consider “Catalytic domain of Par17, residues 60-156 (from UniProt Q9Y237-2 60-156) (domain or fragment)”, for which the binding result in experiment [1] is “no binding”.
For the substance “Catalytic domain of Pin1, residues 50-163 (from UniProt Q13526 50-163) (domain or fragment)”, in experiment [2], the binding entry was “no binding”.
Take “Recombinant human Parvulin 17, full-length, N-terminally His6-tagged (from UniProt Q9Y237-2 1-156) (enzyme)”: the binding entry in experiment [3] is “no binding”.
